Laboratory results reported in patent publication US20160024213A1 (VIB VZW, published 2016).
No constants are given. Whether binding was seen depends on the method and setting. Some binding calls cover weakened binding; strength is not graded here.

T1: Human MMR (MRC1) expressed on cells (human) (UniProt P22897)
T1 sequence: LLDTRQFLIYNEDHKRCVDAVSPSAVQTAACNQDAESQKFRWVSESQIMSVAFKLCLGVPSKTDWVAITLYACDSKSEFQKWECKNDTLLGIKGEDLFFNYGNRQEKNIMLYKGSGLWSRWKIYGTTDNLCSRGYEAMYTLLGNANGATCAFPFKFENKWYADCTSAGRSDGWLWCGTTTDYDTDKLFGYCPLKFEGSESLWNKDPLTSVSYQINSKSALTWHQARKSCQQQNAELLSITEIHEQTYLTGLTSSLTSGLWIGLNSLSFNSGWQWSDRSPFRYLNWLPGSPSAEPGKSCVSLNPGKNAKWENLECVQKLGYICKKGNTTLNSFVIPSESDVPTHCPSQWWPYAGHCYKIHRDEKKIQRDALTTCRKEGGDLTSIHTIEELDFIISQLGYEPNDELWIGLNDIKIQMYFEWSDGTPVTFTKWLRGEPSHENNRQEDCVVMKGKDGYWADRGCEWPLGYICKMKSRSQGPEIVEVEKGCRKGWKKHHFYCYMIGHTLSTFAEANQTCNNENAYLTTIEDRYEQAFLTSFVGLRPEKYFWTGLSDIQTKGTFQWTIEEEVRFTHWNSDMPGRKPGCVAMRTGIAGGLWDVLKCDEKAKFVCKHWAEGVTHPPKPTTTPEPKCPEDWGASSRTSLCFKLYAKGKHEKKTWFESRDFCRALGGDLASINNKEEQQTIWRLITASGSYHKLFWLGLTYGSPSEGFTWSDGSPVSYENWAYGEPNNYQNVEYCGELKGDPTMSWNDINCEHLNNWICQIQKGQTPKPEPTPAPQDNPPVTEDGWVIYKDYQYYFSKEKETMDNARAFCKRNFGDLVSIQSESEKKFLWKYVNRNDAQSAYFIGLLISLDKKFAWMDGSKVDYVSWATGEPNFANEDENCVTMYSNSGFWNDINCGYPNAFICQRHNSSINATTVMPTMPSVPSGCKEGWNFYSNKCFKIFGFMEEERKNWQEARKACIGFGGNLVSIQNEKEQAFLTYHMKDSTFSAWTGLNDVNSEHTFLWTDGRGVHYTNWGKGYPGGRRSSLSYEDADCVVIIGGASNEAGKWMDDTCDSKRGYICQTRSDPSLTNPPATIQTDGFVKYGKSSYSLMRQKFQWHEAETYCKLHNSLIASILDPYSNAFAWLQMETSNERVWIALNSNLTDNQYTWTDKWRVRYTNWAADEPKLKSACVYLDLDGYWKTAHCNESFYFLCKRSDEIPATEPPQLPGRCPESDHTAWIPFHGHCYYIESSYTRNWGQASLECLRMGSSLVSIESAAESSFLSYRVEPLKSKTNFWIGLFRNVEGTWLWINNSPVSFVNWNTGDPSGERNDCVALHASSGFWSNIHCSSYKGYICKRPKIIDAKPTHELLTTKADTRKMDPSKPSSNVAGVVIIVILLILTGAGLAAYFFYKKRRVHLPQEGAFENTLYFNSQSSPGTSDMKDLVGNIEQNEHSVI

T2: Recombinant human MMR (R&D Systems) (human, UniProt P22897 19-1383)
T2 construct: Bought from R&D Systems; also called hMMR; recombinant hMMR
T2 sequence: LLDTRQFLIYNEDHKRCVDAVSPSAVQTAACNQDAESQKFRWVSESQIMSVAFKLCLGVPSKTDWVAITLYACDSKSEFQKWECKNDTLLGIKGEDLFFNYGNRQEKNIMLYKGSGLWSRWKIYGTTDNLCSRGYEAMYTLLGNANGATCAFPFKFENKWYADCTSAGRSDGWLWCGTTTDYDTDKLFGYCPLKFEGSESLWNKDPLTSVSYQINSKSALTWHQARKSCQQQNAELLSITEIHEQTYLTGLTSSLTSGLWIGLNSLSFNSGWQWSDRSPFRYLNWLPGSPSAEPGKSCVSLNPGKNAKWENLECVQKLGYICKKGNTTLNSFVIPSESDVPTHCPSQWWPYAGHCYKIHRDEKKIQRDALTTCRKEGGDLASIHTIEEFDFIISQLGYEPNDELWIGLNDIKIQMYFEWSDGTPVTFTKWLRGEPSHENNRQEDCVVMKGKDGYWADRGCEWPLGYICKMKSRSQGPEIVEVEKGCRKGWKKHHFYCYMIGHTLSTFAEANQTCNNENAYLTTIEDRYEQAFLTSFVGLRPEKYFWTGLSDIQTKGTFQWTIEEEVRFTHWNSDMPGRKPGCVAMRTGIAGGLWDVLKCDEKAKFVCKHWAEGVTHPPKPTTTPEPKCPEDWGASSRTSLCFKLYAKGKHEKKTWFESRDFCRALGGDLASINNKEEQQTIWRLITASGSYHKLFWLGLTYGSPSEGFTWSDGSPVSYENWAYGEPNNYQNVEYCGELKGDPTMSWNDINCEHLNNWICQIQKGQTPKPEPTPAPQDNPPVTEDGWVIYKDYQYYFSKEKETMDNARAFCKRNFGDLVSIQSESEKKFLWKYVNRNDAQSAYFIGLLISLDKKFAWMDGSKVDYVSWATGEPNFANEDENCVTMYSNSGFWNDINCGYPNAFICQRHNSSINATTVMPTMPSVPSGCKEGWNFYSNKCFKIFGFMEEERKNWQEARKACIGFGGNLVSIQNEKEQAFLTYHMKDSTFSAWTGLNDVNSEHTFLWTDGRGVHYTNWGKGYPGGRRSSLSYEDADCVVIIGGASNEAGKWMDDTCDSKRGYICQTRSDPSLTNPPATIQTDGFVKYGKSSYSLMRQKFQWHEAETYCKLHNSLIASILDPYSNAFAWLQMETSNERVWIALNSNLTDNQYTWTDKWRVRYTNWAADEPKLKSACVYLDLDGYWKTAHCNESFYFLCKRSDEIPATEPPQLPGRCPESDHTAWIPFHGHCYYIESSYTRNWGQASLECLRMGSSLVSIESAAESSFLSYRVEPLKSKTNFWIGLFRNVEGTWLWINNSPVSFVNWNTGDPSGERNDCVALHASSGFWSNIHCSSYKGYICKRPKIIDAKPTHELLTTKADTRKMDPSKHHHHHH


Tests used:
[1] = target: T1, Human MMR (MRC1) expressed on cells (human); assay: flow cytometry on human immature dendritic cells
[2] = target: T1, Human MMR (MRC1) expressed on cells (human); assay: flow cytometry on CD11c+ human immature monocyte-derived dendritic cells; Alexa Fluor 488 anti-HA detection
[3] = target: T2, Recombinant human MMR (R&D Systems); assay: PE-ELISA, periplasmic extract on coated MMR (1 µg/ml), anti-HA detection
[4] = target: T2, Recombinant human MMR (R&D Systems); assay: PE-ELISA: periplasmic extract on plate coated with 1 µg/ml human MMR, anti-HA and AP-conjugated anti-mouse detection, OD405; background = milk blocking proteins

Row | binding [1] | binding [2] | binding [3] | binding [4] | Binder
1 | no binding | no binding (tested: 10 µg/ml) | – | – | Anti-MMR Nanobody clone 1 (VHH, 99mTc-labelled at the His tail in the in vivo experiments; also called Anti-MMR Nb1; Nb MMR cl1) VHH: QVQLQESGGGLVQPGGSLRLSCAASGNIFSINAIGWYRQAPGKQRELVATITLSGSTNYADSVKGRFSISRDNAKNTVYLQMNSLKPEDTAVYYCNANTYSDSDVYGYWGQGTQVTVSS
2 | – | – | binds | binds | NbhMMRm15.43 (VHH) VHH: QVQLQESGGTLVQPGGSLRLSCAASGSTFSINNMGWYRQAPGKQRELVAGITGGNTHYADSVKGRFTISRDNAKNTMYLQMNGLKPEDTAVYYCNANWGAYWGQGTQVTVSS
